According to publication PMC4391845:
These are yes or no findings as the source states them, for the method shown. For some of these results: Binding seen in cells or lysates may run through a third protein. Some entries that bind do so weakly or less than the wild type. For some of these results: Where a sequence is shown, tags or fusion partners need not be part of it.

Columns and labels:
[1] = target: T1, GST-PBX1(1–430) full-length (human) (UniProt P40424); assay: pull-down; co-purification from E. coli co-expressing GST-PBX1 and PREP1 on glutathione-sepharose 4B beads; lysis buffer 20 mM Tris pH 7.4, 1 M NaCl, 10% glycerol; washes with 0.5 M and 0.3 M NaCl; eluted by PreScission cleavage
T1 sequence: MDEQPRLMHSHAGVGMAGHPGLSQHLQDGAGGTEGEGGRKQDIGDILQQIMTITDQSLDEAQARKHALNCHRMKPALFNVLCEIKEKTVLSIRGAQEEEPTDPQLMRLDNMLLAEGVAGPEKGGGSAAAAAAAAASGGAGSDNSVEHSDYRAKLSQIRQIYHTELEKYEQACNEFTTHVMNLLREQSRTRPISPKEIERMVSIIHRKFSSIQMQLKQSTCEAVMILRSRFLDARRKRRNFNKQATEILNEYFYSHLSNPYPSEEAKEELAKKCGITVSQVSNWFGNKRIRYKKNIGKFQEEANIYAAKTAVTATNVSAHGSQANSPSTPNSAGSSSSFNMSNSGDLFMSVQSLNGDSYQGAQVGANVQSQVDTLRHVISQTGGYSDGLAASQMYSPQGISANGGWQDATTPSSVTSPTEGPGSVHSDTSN

[2] = target: T2, PBX1(1–430) full-length (human) (UniProt P40424); assay: SEC; co-purified complex on Superose 6 10/300, 20 mM Tris pH 7.4, 0.3 M NaCl, 5% glycerol, 0.5 mM EDTA, 1 mM DTT, 0.3 ml/min; fractions on SDS PAGE; both purified
T2 sequence: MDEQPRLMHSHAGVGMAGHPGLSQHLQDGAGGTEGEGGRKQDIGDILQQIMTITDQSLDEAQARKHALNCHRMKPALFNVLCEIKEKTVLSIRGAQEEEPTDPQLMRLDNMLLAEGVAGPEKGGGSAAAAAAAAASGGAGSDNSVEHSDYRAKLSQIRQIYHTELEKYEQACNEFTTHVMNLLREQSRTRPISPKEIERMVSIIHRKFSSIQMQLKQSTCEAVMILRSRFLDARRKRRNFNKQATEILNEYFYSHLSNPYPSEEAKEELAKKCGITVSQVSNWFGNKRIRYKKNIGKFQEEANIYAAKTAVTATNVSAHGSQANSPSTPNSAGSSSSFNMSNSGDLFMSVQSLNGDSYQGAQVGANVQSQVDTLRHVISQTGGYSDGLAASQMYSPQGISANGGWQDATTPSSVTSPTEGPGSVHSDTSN

[3] = target: T2, PBX1(1–430) full-length (human); assay: ion exchange chromatography (co-elution); co-purified GST-free full-length complex on Resource Q anion exchange column, 20 mM Tris pH 7.4, 0.1–1.0 M NaCl gradient; fractions on SDS PAGE; both purified
GST-PBX1(1–317) (human) = target: T3, GST-PBX1(1–317) (human) (UniProt P40424); assay: pull-down; co-purification from E. coli co-expressing GST-PBX1 and PREP1 on glutathione-sepharose 4B beads; lysis buffer 20 mM Tris pH 7.4, 1 M NaCl, 10% glycerol; washes with 0.5 M and 0.3 M NaCl; eluted by PreScission cleavage
T3 sequence: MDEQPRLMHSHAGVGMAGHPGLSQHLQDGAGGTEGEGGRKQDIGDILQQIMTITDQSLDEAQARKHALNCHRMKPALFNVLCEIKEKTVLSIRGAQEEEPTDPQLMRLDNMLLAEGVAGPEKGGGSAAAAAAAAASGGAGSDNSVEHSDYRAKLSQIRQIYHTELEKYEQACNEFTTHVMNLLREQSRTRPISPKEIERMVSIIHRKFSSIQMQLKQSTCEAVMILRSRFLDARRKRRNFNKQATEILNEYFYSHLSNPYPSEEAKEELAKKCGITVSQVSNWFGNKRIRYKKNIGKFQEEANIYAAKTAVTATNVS

GST-PBX1(1–308) (human) = target: T4, GST-PBX1(1–308) (human) (UniProt P40424); assay: as above
T4 sequence: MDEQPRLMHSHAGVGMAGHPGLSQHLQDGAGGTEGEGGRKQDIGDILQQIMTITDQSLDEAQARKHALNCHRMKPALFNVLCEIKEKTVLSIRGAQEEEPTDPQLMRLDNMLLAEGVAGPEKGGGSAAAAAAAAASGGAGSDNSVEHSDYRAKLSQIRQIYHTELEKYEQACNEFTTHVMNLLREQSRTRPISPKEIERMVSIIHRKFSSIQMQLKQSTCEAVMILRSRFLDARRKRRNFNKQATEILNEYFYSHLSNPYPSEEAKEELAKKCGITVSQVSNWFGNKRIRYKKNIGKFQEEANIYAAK

PBX1(1–317) (human) [4] = target: T5, PBX1(1–317) (human) (UniProt P40424); assay: SEC; co-purified complex on Superose 6 10/300, 20 mM Tris pH 7.4, 0.3 M NaCl, 5% glycerol, 0.5 mM EDTA, 1 mM DTT, 0.3 ml/min; fractions on SDS PAGE; both purified
T5 sequence: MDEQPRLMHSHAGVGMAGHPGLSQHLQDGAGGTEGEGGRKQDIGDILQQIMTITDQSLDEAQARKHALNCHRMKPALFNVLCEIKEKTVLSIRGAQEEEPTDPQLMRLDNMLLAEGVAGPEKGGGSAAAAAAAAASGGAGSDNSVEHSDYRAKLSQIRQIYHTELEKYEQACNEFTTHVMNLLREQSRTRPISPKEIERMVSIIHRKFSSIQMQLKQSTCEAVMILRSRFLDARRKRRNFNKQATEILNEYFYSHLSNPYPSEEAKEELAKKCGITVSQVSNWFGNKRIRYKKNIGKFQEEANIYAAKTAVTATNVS

PBX1(1–308) (human) [5] = target: T6, PBX1(1–308) (human) (UniProt P40424); assay: as above
T6 sequence: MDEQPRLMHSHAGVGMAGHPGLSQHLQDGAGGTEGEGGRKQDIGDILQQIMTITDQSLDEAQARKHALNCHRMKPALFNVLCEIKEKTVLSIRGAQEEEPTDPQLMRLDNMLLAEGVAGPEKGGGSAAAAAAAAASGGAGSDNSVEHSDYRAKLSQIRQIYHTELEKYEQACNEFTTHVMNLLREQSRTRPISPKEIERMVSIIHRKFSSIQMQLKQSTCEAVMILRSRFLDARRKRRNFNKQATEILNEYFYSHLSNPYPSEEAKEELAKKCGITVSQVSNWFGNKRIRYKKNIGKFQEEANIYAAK

PBX1(1–317) (human) [6] = target: T5, PBX1(1–317) (human); assay: ion exchange chromatography (co-elution); co-purified GST-free truncated complexes on Resource S cation exchange column, 20 mM Tris pH 7.4, 0.1–1.0 M NaCl gradient; fractions on SDS PAGE; both purified
PBX1(1–308) (human) [7] = target: T6, PBX1(1–308) (human); assay: as above
PBX1(1–308) (human) [8] = target: T6, PBX1(1–308) (human); assay: SEC-MALS; static light scattering (Viscotek GPCmax, three detectors) after two TSKgel G3000PWxl columns, 20 mM Tris pH 7.2, 200 mM NaCl, 5% glycerol, 1 mM TCEP; complex loaded at 1.5 mg/ml, without and with 11 bp DNA; both purified

Measured: binding

B1: PREP1(1–436) full-length (protein, UniProt P55347 1-436)
chain: MMATQTLSIDSYQDGQQMQVVTELKTEQDPNCSEPDAEGVSPPPVESQTPMDVDKQAIYRHPLFPLLALLFEKCEQSTQGSEGTTSASFDVDIENFVRKQEKEGKPFFCEDPETDNLMVKAIQVLRIHLLELEKVNELCKDFCSRYIACLKTKMNSETLLSGEPGSPYSPVQSQQIQSAITGTISPQGIVVPASALQQGNVAMATVAGGTVYQPVTVVTPQGQVVTQTLSPGTIRIQNSQLQLQLNQDLSILHQDDGSSKNKRGVLPKHATNVMRSWLFQHIGHPYPTEDEKKQIAAQTNLTLLQVNNWFINARRRILQPMLDSSCSETPKTKKKTAQNRPVQRFWPDSIASGVAQPPPSELTMSEGAVVTITTPVNMNVDSLQSLSSDGATLAVQQVMMAGQSEDESVDSTEEDAGALAPAHISGLVLENSDSLQ
binds: [1] | [2] | [3]

B2: PREP1(1–344) (domain or fragment, UniProt P55347 1-344)
chain: MMATQTLSIDSYQDGQQMQVVTELKTEQDPNCSEPDAEGVSPPPVESQTPMDVDKQAIYRHPLFPLLALLFEKCEQSTQGSEGTTSASFDVDIENFVRKQEKEGKPFFCEDPETDNLMVKAIQVLRIHLLELEKVNELCKDFCSRYIACLKTKMNSETLLSGEPGSPYSPVQSQQIQSAITGTISPQGIVVPASALQQGNVAMATVAGGTVYQPVTVVTPQGQVVTQTLSPGTIRIQNSQLQLQLNQDLSILHQDDGSSKNKRGVLPKHATNVMRSWLFQHIGHPYPTEDEKKQIAAQTNLTLLQVNNWFINARRRILQPMLDSSCSETPKTKKKTAQNRPVQR
binds: GST-PBX1(1–317) (human) | GST-PBX1(1–308) (human) | PBX1(1–317) (human) [4] | PBX1(1–308) (human) [5] | PBX1(1–317) (human) [6] | PBX1(1–308) (human) [7] | PBX1(1–308) (human) [8]
